{"source": "PubChem BioAssay AID248", "about": "(DTP/NCI, 2004)", "test_system": "L1210 leukemia ip in BDF1 mice, survival T/C", "assay": "NCI In Vivo Anticancer Drug Screen. Data for tumor model L1210 Leukemia (intraperitoneal) in B6D2F1 (BDF1) mice", "conditions": "T/C endpoint: mean survival time, higher T/C = longer survival", "note": "The list is a part of this screen's results and no random one: it gathers tests that were run many times, whatever their T/C, doses with no T/C, and many T/C values between a quarter and a half above the control. Further doses and runs are listed elsewhere. T/C is the treated group as % of the vehicle group. Some entries give survivors of the animals treated and no T/C: the source files T/C as zero there, which appears to mark a toxic dose or a test without result, not a measured value. Some survivor counts are full or nearly so, which does not show that the dose was tolerated: survival well below the control is almost never listed, so the zero probably covers shortened survival too. Survivors were counted at the toxicity check, usually on the fifth day, unless a day is given; later deaths do not show. Schedule codes are those of the source, taken here to give the interval after Q, in days (D) or hours (H), and the number of doses after X. Some schedules carry Z or #; the key to these is not given."}
{"smiles": "CCN(C)c1cc2c3c(c1)CCCN3CCC2", "values": [{"measurement": "survivor count", "setting": "dose: 10.0 mg/kg/injection, schedule: Q01DX009 (ip), vehicle: saline", "value": "3 of 6"}, {"measurement": "survivor count", "setting": "dose: 20.0 mg/kg/injection, schedule: Q01DX009 (ip), vehicle: saline", "value": "1 of 6"}]}
{"smiles": "O=C(Nc1ccc(C2=NCCCN2)cc1)N1CCN(C(=O)Nc2ccc(C3=NCCCN3)cc2)CC1", "values": [{"measurement": "survivor count", "setting": "dose: 40.0 mg/kg/injection, schedule: Q01DX Z (ip), vehicle: water", "value": "1 of 6"}, {"measurement": "survivor count", "setting": "dose: 80.0 mg/kg/injection, schedule: Q01DX Z (ip), vehicle: water", "value": "0 of 6"}]}
{"smiles": "OC1(C#CI)CCCCC1", "values": [{"measurement": "survivor count", "setting": "dose: 400.0 mg/kg/injection, schedule: Q01DX009 (ip), vehicle: Klucel (hydroxypropylcellulose) (HPC)", "value": "6 of 6"}]}
